According to patent publication US20240201191A1, “CITRULLINATED PROTEINS AS BIOMARKERS AND THERAPY TARGETS FOR CANCER” (BOARD OF REGENTS, THE UNIVERSITY OF TEXAS SYSTEM, priority 2022, published 2024):
Some ranges recur; such a range may be that of the whole group of compounds.

The substances below were run on MDA-MB-468 (TNBC) cells (assay: Cell surface HLA-bound peptidyl-citrullinome by mass spectrometry, MDA-MB-468). Settings: mild acid elution, LC-MS/MS, FDR=0.01; class by peptide length.
Type: cell-based, human
“AEKWTTVPR*QHVCVESTDR*QIKTIRPN (AEKWTTVPRQHVCVESTDRQIKTIRPN; citrulline at R9 and R19; MOD_RES (9)..(9) Citrullinated Arginine; MOD_RES (19)..(19) Citrullinated Arginine) [SEQ ID NO: 78, PCSK5 peptide, R9(Cit.); R19(Cit.)]” was tested, and the “Cell surface MHC binding citrullinated peptide identified in MDA-MB-468 (TNBC)” value was “MHC-II (from 12 to 34 as MHC-IU binding peptides)”. In the case of “EAVSHTSDMHR*GYADSPSKAGAAPYVQAF (EAVSHTSDMHRGYADSPSKAGAAPYVQAF; citrulline at R11; MOD_RES (11)..(11) Citrullinated Arginine) [SEQ ID NO: 20, CAP1 peptide, R11(Cit.)]”, the “Cell surface MHC binding citrullinated peptide identified in MDA-MB-468 (TNBC)” value is reported as “MHC-II (from 12 to 34 as MHC-IU binding peptides)”. With “ELEAER*STNIAAAASEPHS (ELEAERSTNIAAAASEPHS; citrulline at R6; MOD_RES (6)..(6) Citrullinated Arginine) [SEQ ID NO: 53, HDDC2 peptide, R6(Cit.)]” the “Cell surface MHC binding citrullinated peptide identified in MDA-MB-468 (TNBC)” value was “MHC-II (from 12 to 34 as MHC-IU binding peptides)”. “ENLIR*KHTGSGILSMANAGPNINGSQF [SEQ ID NO: 91]” was tested, and the “Cell surface MHC binding citrullinated peptide identified in MDA-MB-468 (TNBC)” value was “MHC-II (from 12 to 34 as MHC-IU binding peptides)”. “EVQALDDTER*GSGGFGSTGKN (EVQALDDTERGSGGFGSTGKN; citrulline at R10; MOD_RES (10)..(10) Citrullinated Arginine) [SEQ ID NO: 31, DUT peptide, R.10(Cit.)]” was tested, and the “Cell surface MHC binding citrullinated peptide identified in MDA-MB-468 (TNBC)” value was “MHC-II (from 12 to 34 as MHC-IU binding peptides)”. For “FAKPR*NQGGYGGSSSSSSYGSGR*RF (FAKPRNQGGYGGSSSSSSYGSGRRF; citrulline at R5 and R23; MOD_RES (5)..(5) Citrullinated Arginine; MOD_RES (23)..(23) Citrullinated Arginine) [SEQ ID NO: 58, HNRNPA1 peptide, R5(Cit.); R23(Cit.)]”, the “Cell surface MHC binding citrullinated peptide identified in MDA-MB-468 (TNBC)” value was “MHC-II (from 12 to 34 as MHC-IU binding peptides)”. With “FKSPDDPSR*YISPDQLADL (FKSPDDPSRYISPDQLADL; citrulline at R9; MOD_RES (9)..(9) Citrullinated Arginine) [SEQ ID NO: 41, ENO1 peptide, R9(Cit.)]” the “Cell surface MHC binding citrullinated peptide identified in MDA-MB-468 (TNBC)” value was “MHC-II (from 12 to 34 as MHC-IU binding peptides)”. With “FNKPDIDAWELR*KGINTL (FNKPDIDAWELRKGINTL; citrulline at R12; MOD_RES (12)..(12) Citrullinated Arginine) [SEQ ID NO: 28, COX5A peptide, R12(Cit.)]” the “Cell surface MHC binding citrullinated peptide identified in MDA-MB-468 (TNBC)” value was “MHC-II (from 12 to 34 as MHC-IU binding peptides)”. “FTKTHPQWYPAR*QSL (FTKTHPQWYPARQSL; citrulline at R12; MOD_RES (12)..(12) Citrullinated Arginine) [SEQ ID NO: 129, TECR peptide, R12(Cit.)]” was tested, and the “Cell surface MHC binding citrullinated peptide identified in MDA-MB-468 (TNBC)” value was “MHC-II (from 12 to 34 as MHC-IU binding peptides)”. In the case of “FTR*HNGTGGKSIYGEKF (FTRHNGTGGKSIYGEKF; citrulline at R3; MOD_RES (3)..(3) Citrullinated Arginine) [SEQ ID NO: 90, PPIA peptide, R3(Cit.)]”, the “Cell surface MHC binding citrullinated peptide identified in MDA-MB-468 (TNBC)” value is reported as “MHC-II (from 12 to 34 as MHC-IU binding peptides)”. “FVHLR*VFQSLPHENKPLTLSNYQTNKAKHDE (FVHLRVFQSLPHENKPLTLSNYQTNKAKHDE; citrulline at R5; MOD_RES (5)..(5) Citrullinated Arginine) [SEQ ID NO: 29, CSTB peptide, R5(Cit.)]” was tested, and the “Cell surface MHC binding citrullinated peptide identified in MDA-MB-468 (TNBC)” value was “MHC-II (from 12 to 34 as MHC-IU binding peptides)”. “GGTR*GANGGR*VPGNGAGLGPGR* (GGTRGANGGRVPGNGAGLGPGR; citrulline at R4, R10, R22; MOD_RES (4)..(4) Citrullinated Arginine; MOD_RES (10)..(10) Citrullinated Arginine; MOD_RES (22)..(22) Citrullinated Arginine) [SEQ ID NO: 121, SRF peptide, R4(Cit.); R10(Cit.); R22(Cit.)]” was tested, and the “Cell surface MHC binding citrullinated peptide identified in MDA-MB-468 (TNBC)” value was “MHC-II (from 12 to 34 as MHC-IU binding peptides)”. For “GIYVKTIFAGGAAAADGR*LQEGDE (GIYVKTIFAGGAAAADGRLQEGDE; citrulline at R18; MOD_RES (18)..(18) Citrullinated Arginine) [SEQ ID NO: 60, IL16 peptide, R18(Cit.)]”, the “Cell surface MHC binding citrullinated peptide identified in MDA-MB-468 (TNBC)” value was “MHC-II (from 12 to 34 as MHC-IU binding peptides)”. “GLLDSHLIKEAGDAESR* (citrulline at R17; MOD_RES (17)..(17) Citrullinated Arginine) [SEQ ID NO: 119, SFN peptide, R17(Cit.)]” was tested, and the “Cell surface MHC binding citrullinated peptide identified in MDA-MB-468 (TNBC)” value was “MHC-II (from 12 to 34 as MHC-IU binding peptides)”. “GQENPQLLQQISR*HQEQF (GQENPQLLQQISRHQEQF; citrulline at R13; MOD_RES (13)..(13) Citrullinated Arginine) [SEQ ID NO: 107, RAD23A peptide, R13(Cit.)]” was tested, and the “Cell surface MHC binding citrullinated peptide identified in MDA-MB-468 (TNBC)” value was “MHC-II (from 12 to 34 as MHC-IU binding peptides)”. With “HIQQNEALAAKAGLLGQPR* (citrulline at R19; MOD_RES (19)..(19) Citrullinated Arginine) [SEQ ID NO: 130, TIMM9 peptide, R19(Cit.)]” the “Cell surface MHC binding citrullinated peptide identified in MDA-MB-468 (TNBC)” value was “MHC-II (from 12 to 34 as MHC-IU binding peptides)”. With “HLGR*PDGVPMPDKYSLEPVAVELK (HLGRPDGVPMPDKYSLEPVAVELK; citrulline at R4; MOD_RES (4)..(4) Citrullinated Arginine) [SEQ ID NO: 81, PGK1 peptide, R4(Cit.)]” the “Cell surface MHC binding citrullinated peptide identified in MDA-MB-468 (TNBC)” value was “MHC-II (from 12 to 34 as MHC-IU binding peptides)”. For “IAQQMMPEVR*GALFGANANRKF (IAQQMMPEVRGALFGANANRKF; citrulline at R10; MOD_RES (10)..(10) Citrullinated Arginine) [SEQ ID NO: 9, ATP6V1E1 peptide, R10(Cit.)]”, the “Cell surface MHC binding citrullinated peptide identified in MDA-MB-468 (TNBC)” value was “MHC-II (from 12 to 34 as MHC-IU binding peptides)”. “IFPER*IDPNPADSQKSTQVE (IFPERIDPNPADSQKSTQVE; citrulline at R5; MOD_RES (5)..(5) Citrullinated Arginine) [SEQ ID NO: 131, TIPRL peptide, R5(Cit.)]” was tested, and the “Cell surface MHC binding citrullinated peptide identified in MDA-MB-468 (TNBC)” value was “MHC-II (from 12 to 34 as MHC-IU binding peptides)”. “INANR*ADAEEEAATRIPA (INANRADAEEEAATRIPA; citrulline at R5; MOD_RES (5)..(5) Citrullinated Arginine) [SEQ ID NO: 32, DYNC112 peptide, R5(Cit.)]” was tested, and the “Cell surface MHC binding citrullinated peptide identified in MDA-MB-468 (TNBC)” value was “MHC-II (from 12 to 34 as MHC-IU binding peptides)”. “IPR*ALAENSGVKANEVISKL (IPRALAENSGVKANEVISKL; citrulline at R3; MOD_RES (3)..(3) Citrullinated Arginine) [SEQ ID NO: 23, CCT8 peptide, R3(Cit.)]” was tested, and the “Cell surface MHC binding citrullinated peptide identified in MDA-MB-468 (TNBC)” value was “MHC-II (from 12 to 34 as MHC-IU binding peptides)”. For “IREADVDQDGR*VNYE (IREADVDQDGRVNYE; citrulline at R11; MOD_RES (11)..(11) Citrullinated Arginine) [SEQ ID NO: 19, CALML5 peptide, R1I(Cit.)]”, the “Cell surface MHC binding citrullinated peptide identified in MDA-MB-468 (TNBC)” value was “MHC-II (from 12 to 34 as MHC-IU binding peptides)”. For “ISWYDNEFGYSNR*VVD (ISWYDNEFGYSNRVVD; citrulline at R13; MOD_RES (13)..(13) Citrullinated Arginine) [SEQ ID NO: 49, GAPDH peptide, R13(Cit.)]”, the “Cell surface MHC binding citrullinated peptide identified in MDA-MB-468 (TNBC)” value was “MHC-II (from 12 to 34 as MHC-IU binding peptides)”. For “ISWYDNEFGYSNR*VVDL (ISWYDNEFGYSNRVVDL; citrulline at R13; MOD_RES (13)..(13) Citrullinated Arginine) [SEQ ID NO: 48, GAPDH peptide, R13(Cit.)]”, the “Cell surface MHC binding citrullinated peptide identified in MDA-MB-468 (TNBC)” value was “MHC-II (from 12 to 34 as MHC-IU binding peptides)”. With “KLEQSEAQLGR*GSF (KLEQSEAQLGRGSF; citrulline at R11; MOD_RES (11)..(11) Citrullinated Arginine) [SEQ ID NO: 27, COPS5 peptide, R11(Cit.)]” the “Cell surface MHC binding citrullinated peptide identified in MDA-MB-468 (TNBC)” value was “MHC-II (from 12 to 34 as MHC-IU binding peptides)”. For “KSVTEQGAELSNEER*NLL (KSVTEQGAELSNEERNLL; citrulline at R15; MOD_RES (15)..(15) Citrullinated Arginine) [SEQ ID NO: 134, YWHAZ peptide, R15(Cit.)]”, the “Cell surface MHC binding citrullinated peptide identified in MDA-MB-468 (TNBC)” value was “MHC-II (from 12 to 34 as MHC-IU binding peptides)”. In the case of “LAENGR*LSNTQGVVSAFS (LAENGRLSNTQGVVSAFS; citrulline at R6; MOD_RES (6)..(6) Citrullinated Arginine) [SEQ ID NO: 7, ATP5O peptide, R6(Cit.)]”, the “Cell surface MHC binding citrullinated peptide identified in MDA-MB-468 (TNBC)” value is reported as “MHC-II (from 12 to 34 as MHC-IU binding peptides)”. “LAENGR*LSNTQGVVSAFSTM (LAENGRLSNTQGVVSAFSTM; citrulline at R6; MOD_RES (6)..(6) Citrullinated Arginine) [SEQ ID NO: 8, ATP5O peptide, R6(Cit.)]” was tested, and the “Cell surface MHC binding citrullinated peptide identified in MDA-MB-468 (TNBC)” value was “MHC-II (from 12 to 34 as MHC-IU binding peptides)”. In the case of “LALRKR*TPSAGKAMDTPKPAVSDEKNINTF (LALRKRTPSAGKAMDTPKPAVSDEKNINTF; citrulline at R6; MOD_RES (6)..(6) Citrullinated Arginine) [SEQ ID NO: 67, MK167 peptide, R6(Cit.)]”, the “Cell surface MHC binding citrullinated peptide identified in MDA-MB-468 (TNBC)” value is reported as “MHC-II (from 12 to 34 as MHC-IU binding peptides)”. In the case of “LAR*ELPAAVAPAGPASLAR*WTLG (LARELPAAVAPAGPASLARWTLG; citrulline at R3 and R19; MOD_RES (3)..(3) Citrullinated Arginine; MOD_RES (19)..(19) Citrullinated Arginine) [SEQ ID NO: 82, PGLS peptide, R3(Cit.); R19(Cit.)]”, the “Cell surface MHC binding citrullinated peptide identified in MDA-MB-468 (TNBC)” value is reported as “MHC-II (from 12 to 34 as MHC-IU binding peptides)”. In the case of “LETADGESMNTEESNQGSTPSDQQQNKLR* (citrulline at R29; MOD_RES (29)..(29) Citrullinated Arginine) [SEQ ID NO: 99, PPP1R2P3 peptide, R29(Cit.)]”, the “Cell surface MHC binding citrullinated peptide identified in MDA-MB-468 (TNBC)” value is reported as “MHC-II (from 12 to 34 as MHC-IU binding peptides)”.
